Here are results for 30 compounds from the supplement of paper PMC12889115.

The test system of the experiment is Salmonella enterica serovar Typhimurium SL1344. In words: bacterial growth OD600 after 18 h with compound and polymyxin B; higher = more bacterial growth (less inhibition). Conditions: 50 µM, Mueller-Hinton broth.

Structures are written as SMILES. Some of the results follow. These are raw signals, not scaled to a control.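 In the initial screen, polymyxin B was used at a concentration that permeabilizes Salmonella's outer membrane but not its inner membrane. Maximum growth was set by DMSO wells with or without polymyxin B. Since plates varied, data were ranked per plate, and compounds giving the lowest OD600 advanced as hits.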

Take `COc1cccc(-c2cnc(-c3ccncc3)nc2C2CCN(Cc3cc(OC)ccc3OC)CC2)c1`: the “bacterial growth OD600” value (polymyxin B 0.75 µg/mL) was 0.98.
On the same count and under the same terms, as for `CC(C)C(CO)NC(=O)C1(N2CCCCC2)Cc2ccccc2C1` (stereo not given), the figure is 0.587.
On the same count and under the same terms, as for `C=CCC(O)(CC=C)CNC1CCN(c2ccc(C(=O)NCCN3CCOCC3)cc2)CC1`, the figure is 0.854.
Consider `COC(=O)c1ccc(C(=O)N2CCCC(Nc3ccc(F)cc3)C2)cc1` (stereo not given), for which, under “polymyxin B 1 µg/mL”, the “bacterial growth OD600” value was 0.884.
As for `O=C(c1cccs1)N1CCC(C2CCN(c3ncccn3)CC2)C1` (stereo not given), for the setting “polymyxin B 0.75 µg/mL”, the “bacterial growth OD600” value came to 0.749.
Consider `CCOC(=O)N1CCN(C(=O)C2CCC(=O)N(CCCN3CCOCC3)C2)CC1` (stereo not given), for which the “bacterial growth OD600” value (polymyxin B 1 µg/mL) is 0.88.
The same measure, in the same setting: as for `O=C(CCc1ccccc1F)NC1CCCN(C2CCCCCC2)C1` (stereo not given), the figure is 0.957.
For `Cc1cc(C)c(CN2CCC(N3CCCC(C(=O)NC4CC4)C3)CC2)cc1C` (stereo not given), the “bacterial growth OD600” value (polymyxin B 0.75 µg/mL) worked out at 0.818.
With `Fc1ccc(CC2CCN(Cc3nc(Cc4cccc(F)c4)no3)CC2)cc1`, the “bacterial growth OD600” value (polymyxin B 1 µg/mL) is 0.821.
For the compound `CCN1CCCC1CNC(=O)CCC1CCN(C(=O)c2cc(C)n(C)n2)CC1` (stereo not given), the “bacterial growth OD600” value (polymyxin B 0.75 µg/mL) was found to be 0.794.
Same read-out and setting: for `O=C(COc1ccccc1)Nc1ccc(N2CCC(NCCC3=CCCCC3)CC2)cc1` the value was 0.877.
For the compound `CN(C1CCN(Cc2ccccn2)CC1)C1CCCN(CCc2ccccc2)C1` (stereo not given), the “bacterial growth OD600” value (polymyxin B 1 µg/mL) is 0.976.
Same read-out and setting: as for `COc1ccc(N2CCN(C3CCCN(CC4CC4)C3)CC2)cc1` (stereo not given), the figure is 1.33; as for `C=CCNC(=O)N1CCC(Cc2ccc(Cl)cc2)(C(=O)OCC)CC1`, 0.043.
`Cc1nc(N2CCCC2C(=O)NCC2(O)CCCCC2)nc2cc(S(C)(=O)=O)ccc12` (stereo not given): under “polymyxin B 0.75 µg/mL”, the “bacterial growth OD600” value was 0.756.
The same measure, in the same setting: as for `O=C(CCc1ccccc1F)N1CCc2[nH]nc(-c3cccc(F)c3)c2C1`, the figure is 0.005.
For the compound `CC(C)CCN(C)C(=O)c1coc(COc2ccc(F)cc2)n1`, where the note is “polymyxin B 1 µg/mL”, the “bacterial growth OD600” value is 0.921.
Take `COC(=O)[C@H](Cc1ccccc1)NC(=O)CCC1(Cc2ccc(OC)c3ccccc23)CCC(=O)N1` (stereo not given in full): the “bacterial growth OD600” value (polymyxin B 0.75 µg/mL) stood at 0.845.
With `CCCc1cc(CNC(=O)c2ccc(NC3CCOC(C)(C)C3)nc2)on1` (stereo not given), the “bacterial growth OD600” value (polymyxin B 0.75 µg/mL) came to 0.889.
`Cc1cc(C)n(CCN(C)C(=O)c2cc(Cn3ccnc3C(C)C)[nH]n2)n1`: the “bacterial growth OD600” value (polymyxin B 1 µg/mL) came out at 1.08.
`Cc1ccccc1CCC1CCCN(C(=O)c2cccnc2)C1` (stereo not given): where the note is “polymyxin B 0.75 µg/mL”, the “bacterial growth OD600” value came to 0.007.
In the case of `Cc1onc(-c2ccccc2)c1C(=O)N1CCCC(Nc2ccc3c(c2)OCCO3)C1` (stereo not given), the “bacterial growth OD600” value (polymyxin B 1 µg/mL) came to 0.913.
The same measure, in the same setting: for `COc1ccc(-c2ccccc2NC(=O)C2CCCN(C3CCCC3)C2)cc1` (stereo not given) the value was 0.886; for `COc1cccc(NC(=O)CCC2CCN(C(=O)c3ccoc3)CC2)c1`, 1.25.
For the compound `Cc1ccccc1CCN1CCCC(CN(C)C(=O)/C=C/c2cccnc2)C1` (stereo not given), the “bacterial growth OD600” value (polymyxin B 0.75 µg/mL) stood at 1.01.
On to `Cn1cc(CN2CCC(C(=O)Nc3ccc(-c4nc5ccccc5o4)cc3)CC2)cn1`, for which the “bacterial growth OD600” value (polymyxin B 1 µg/mL) was found to be 1.1.
Same read-out and setting: as for `CCc1nc(C)c(C(=O)NC2CC(=O)N(Cc3cccc(F)c3)C2)o1` (stereo not given), the figure is 0.914.
On to `Cc1n[nH]c(C)c1CNC(=O)c1cc(COc2cccc(F)c2)[nH]n1`, for which the “bacterial growth OD600” value (polymyxin B 0.75 µg/mL) is 0.872.
With `COc1ccc(NC(=O)CCC2CCCN(Cc3ccc4nonc4c3)C2)cc1Cl` (stereo not given), the “bacterial growth OD600” value (polymyxin B 1 µg/mL) was determined as 0.808.
Take `COC(=O)C1CCN(C(=O)CC2(c3ccc(-c4ccccc4)cc3)CC(=O)N(C3CC3)C2=O)CC1` (stereo not given): where the note is “polymyxin B 0.75 µg/mL”, the “bacterial growth OD600” value stood at 0.585.
